Results published in article PMC7862700.
Only a part is listed here, and it is no random draw. For some of these results: At the low end of the ranking, values are background and their order means little. Some of the results follow. For some of these results: The exact form of the protein is not confirmed.

Chains of the proteins cited; added tags and fusions are not shown. Lines headed by an entry give the natural chain unless they say otherwise; changes in a name come on top.
UniProt P50549: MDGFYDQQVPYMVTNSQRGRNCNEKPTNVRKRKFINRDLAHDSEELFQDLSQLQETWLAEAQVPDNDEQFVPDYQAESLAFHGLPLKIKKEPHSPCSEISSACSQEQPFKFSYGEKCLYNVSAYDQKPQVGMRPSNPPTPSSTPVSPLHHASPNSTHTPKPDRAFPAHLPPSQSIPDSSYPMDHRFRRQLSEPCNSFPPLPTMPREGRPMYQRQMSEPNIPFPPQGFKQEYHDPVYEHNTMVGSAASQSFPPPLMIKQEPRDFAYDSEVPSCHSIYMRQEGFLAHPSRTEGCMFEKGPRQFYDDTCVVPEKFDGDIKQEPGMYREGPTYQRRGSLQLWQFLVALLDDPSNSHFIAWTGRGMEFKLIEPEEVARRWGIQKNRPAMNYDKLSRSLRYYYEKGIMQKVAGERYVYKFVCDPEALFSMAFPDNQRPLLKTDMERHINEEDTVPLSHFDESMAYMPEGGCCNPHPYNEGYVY
UniProt P32519: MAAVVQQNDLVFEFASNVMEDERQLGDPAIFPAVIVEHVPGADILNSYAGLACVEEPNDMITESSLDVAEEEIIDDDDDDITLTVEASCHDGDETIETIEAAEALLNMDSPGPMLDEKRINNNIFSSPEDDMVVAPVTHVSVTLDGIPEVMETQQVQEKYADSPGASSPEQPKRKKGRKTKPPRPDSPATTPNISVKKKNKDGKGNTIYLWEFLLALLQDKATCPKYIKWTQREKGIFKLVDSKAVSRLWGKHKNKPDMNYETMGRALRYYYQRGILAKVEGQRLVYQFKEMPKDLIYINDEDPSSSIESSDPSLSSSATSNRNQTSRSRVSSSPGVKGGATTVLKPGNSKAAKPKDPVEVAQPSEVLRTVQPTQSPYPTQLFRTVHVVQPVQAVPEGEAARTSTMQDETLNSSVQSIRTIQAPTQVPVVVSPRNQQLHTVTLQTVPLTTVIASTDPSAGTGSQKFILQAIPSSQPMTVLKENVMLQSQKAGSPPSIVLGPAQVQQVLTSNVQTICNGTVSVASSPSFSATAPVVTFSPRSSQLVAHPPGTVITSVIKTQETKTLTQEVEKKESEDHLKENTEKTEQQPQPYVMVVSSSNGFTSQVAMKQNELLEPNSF

What was measured:
Test in all cases: DAPPL (digital affinity profiling via proximity ligation, sequencing)
Settings in all cases: 10 mM Tris-HCl pH 7.5, 50 mM NaCl, 1 mM DTT, 4% glycerol, room temperature, 30 min; GST-TFs on glutathione beads, 16-mer random dsDNA library, 0.1% …; high values mean tight binding; double strand, one strand shown; scale: fold enrichment (6-mer frequency, TF over GST control)
ERG = target: T1, ERG (UniProt P11308)
T1 sequence: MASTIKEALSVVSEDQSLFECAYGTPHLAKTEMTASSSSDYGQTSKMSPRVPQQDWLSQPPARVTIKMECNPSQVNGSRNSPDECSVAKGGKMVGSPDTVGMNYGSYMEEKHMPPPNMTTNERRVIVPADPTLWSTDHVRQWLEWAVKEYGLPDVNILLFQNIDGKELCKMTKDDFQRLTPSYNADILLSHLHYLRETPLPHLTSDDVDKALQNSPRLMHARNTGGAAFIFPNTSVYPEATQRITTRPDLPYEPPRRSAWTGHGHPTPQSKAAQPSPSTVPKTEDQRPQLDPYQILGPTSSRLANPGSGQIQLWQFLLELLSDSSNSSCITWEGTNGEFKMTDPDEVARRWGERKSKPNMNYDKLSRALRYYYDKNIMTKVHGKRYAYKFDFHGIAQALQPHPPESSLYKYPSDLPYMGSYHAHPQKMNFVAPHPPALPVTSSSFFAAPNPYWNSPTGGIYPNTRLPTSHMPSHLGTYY

ETV4 = target: T2, ETV4 (UniProt P43268)
T2 sequence: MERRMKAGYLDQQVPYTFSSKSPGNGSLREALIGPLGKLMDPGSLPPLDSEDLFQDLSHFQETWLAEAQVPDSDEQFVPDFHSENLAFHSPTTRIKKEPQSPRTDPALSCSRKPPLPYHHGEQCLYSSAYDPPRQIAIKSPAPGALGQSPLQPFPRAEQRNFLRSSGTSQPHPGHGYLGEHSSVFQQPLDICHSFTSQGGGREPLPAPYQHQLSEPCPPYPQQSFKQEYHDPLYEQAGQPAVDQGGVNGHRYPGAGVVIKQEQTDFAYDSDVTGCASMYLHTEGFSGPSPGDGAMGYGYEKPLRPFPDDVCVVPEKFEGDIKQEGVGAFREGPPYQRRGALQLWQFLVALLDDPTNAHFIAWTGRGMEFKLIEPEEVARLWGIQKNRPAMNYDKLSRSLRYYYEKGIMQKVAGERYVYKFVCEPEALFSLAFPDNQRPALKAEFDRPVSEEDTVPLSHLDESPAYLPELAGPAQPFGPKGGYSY

ETV1 = ETV1 (UniProt P50549)
ERF = target: T3, ERF (UniProt P50548)
T3 sequence: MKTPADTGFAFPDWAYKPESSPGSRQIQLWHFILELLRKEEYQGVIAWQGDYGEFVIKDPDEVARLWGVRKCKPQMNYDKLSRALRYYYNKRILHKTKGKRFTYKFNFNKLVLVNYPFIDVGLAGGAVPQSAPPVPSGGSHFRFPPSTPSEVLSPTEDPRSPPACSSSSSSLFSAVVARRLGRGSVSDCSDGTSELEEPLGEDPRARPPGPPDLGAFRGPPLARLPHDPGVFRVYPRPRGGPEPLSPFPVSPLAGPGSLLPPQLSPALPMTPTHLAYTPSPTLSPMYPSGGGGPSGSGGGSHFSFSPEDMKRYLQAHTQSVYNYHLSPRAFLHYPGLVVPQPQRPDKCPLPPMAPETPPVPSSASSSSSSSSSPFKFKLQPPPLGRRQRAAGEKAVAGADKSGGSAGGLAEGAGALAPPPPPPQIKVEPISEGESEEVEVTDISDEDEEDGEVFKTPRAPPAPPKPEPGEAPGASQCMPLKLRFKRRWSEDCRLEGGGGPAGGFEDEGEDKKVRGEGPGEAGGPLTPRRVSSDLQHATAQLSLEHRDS

ELF1 = ELF1 (UniProt P32519)

Row | Sequence | binding signal (ERG) | binding signal (ETV4) | binding signal (ETV1) | binding signal (ERF) | binding signal (ELF1)
1 | TGGGCA | 0.976 | 1.02 | 0.908 | 0.942 | 
2 | CGCGCA | 0.937 | 0.96 | 0.921 | 0.921 | 0.939
3 | AAGGCT | 0.963 | 1.03 | 0.974 | 0.906 | 
4 | GCCCTG | 1 | 1.08 | 0.933 | 0.896 | 
5 | TCGAAC | 0.999 | 0.986 | 0.977 | 1.07 | 
6 | CGCTGT | 0.947 | 0.919 | 0.965 | 1.12 | 
7 | GTACTG | 1.09 | 1.05 | 1.02 | 1.02 | 
8 | ACTGTA | 0.965 | 1.01 | 1.02 | 0.981 | 
9 | ATGCTG | 0.949 | 1.01 | 1.06 | 1.16 | 
10 | CACCCT | 1.16 | 1.17 | 1.24 | 1.09 | 
11 | ACATCG | 0.954 | 1.06 | 0.935 | 1.11 | 1.06
12 | ATAGTC | 0.942 | 0.909 | 0.973 | 0.908 | 0.971
13 | GGTATG | 0.979 | 0.977 | 0.948 | 0.922 | 
14 | GTGGTC | 0.882 | 0.805 | 0.83 | 0.931 | 0.857
15 | TAGGAA | 1.17 | 1.09 | 1.13 |  | 
16 | AGCCAC | 0.954 | 1.03 | 1.04 | 1.01 | 0.953
17 | TAATGG | 1.22 | 1.29 | 1.45 | 1.17 | 
18 | GTAATC | 1.08 | 1.16 | 1.02 | 1.08 | 
19 | ATAGAC | 0.958 | 0.94 | 0.993 | 0.952 | 
20 | TGAAAG | 0.948 | 1.03 | 0.985 | 0.972 | 
21 | CGACGG | 0.998 | 0.945 | 0.992 | 0.965 | 
22 | GGTTCT | 0.911 | 1.05 | 1.01 | 0.932 | 
23 | TGATCA | 0.982 | 1.03 | 0.997 |  | 
24 | GCCTGT | 0.944 | 0.921 | 0.962 | 0.947 | 0.869

Taken from above:
Value of AGCCAC under binding signal (ETV1): 1.04
Value of CGCTGT under binding signal (ETV4): 0.919
